Among the data in PMC4161027 are binding values, retold here.

By UniProt entry, the sequences of proteins in these tests, tags left out. Where a name states a change or a piece, a line headed by the entry shows the natural chain unless it says otherwise.
UniProt O88339: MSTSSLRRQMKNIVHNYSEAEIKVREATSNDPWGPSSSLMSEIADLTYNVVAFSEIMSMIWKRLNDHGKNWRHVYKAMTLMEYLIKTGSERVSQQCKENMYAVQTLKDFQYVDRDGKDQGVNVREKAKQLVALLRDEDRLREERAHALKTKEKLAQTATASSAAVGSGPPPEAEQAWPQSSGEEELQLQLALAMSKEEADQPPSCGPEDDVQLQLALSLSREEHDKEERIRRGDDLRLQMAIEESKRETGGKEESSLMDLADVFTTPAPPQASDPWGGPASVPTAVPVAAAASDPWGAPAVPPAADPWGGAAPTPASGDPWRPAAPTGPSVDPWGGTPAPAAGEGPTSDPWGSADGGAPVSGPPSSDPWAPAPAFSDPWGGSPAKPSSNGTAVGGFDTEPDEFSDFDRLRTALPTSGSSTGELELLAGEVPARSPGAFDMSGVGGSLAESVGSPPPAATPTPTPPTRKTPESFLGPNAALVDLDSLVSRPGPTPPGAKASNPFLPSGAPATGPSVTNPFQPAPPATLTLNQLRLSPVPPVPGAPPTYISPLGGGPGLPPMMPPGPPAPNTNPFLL
UniProt P63044: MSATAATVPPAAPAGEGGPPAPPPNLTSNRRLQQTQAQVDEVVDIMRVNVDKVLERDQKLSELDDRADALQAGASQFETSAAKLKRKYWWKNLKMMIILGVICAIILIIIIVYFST

The target in the assay is GST-tagged ENTH domain of rat epsin 1 (rat) (UniProt O88339). The assay is described as follows: affinity purification with mass spectrometry; GST–ENTH domain of epsin 1 as bait, mouse brain lysate; gel band analysed by mass spectroscopy; only the target purified.

These are yes or no findings as the source states them, for the method shown. Binding seen in cells or lysates may run through a third protein. A yes stands for co-enrichment or nearness to the bait. Other partners may have been found.

For “synaptobrevin 2/VAMP2 (endogenous, mouse brain) (from UniProt P63044 1-116)”, the binding entry was “binds”.
